Measured values as given in patent US20250276074A1, “BRM AND BRG1 TARGETING ANTIBODY-DRUG CONJUGATES AND METHODS OF USE THEREOF” (Prelude Therapeutics Incorporated, priority 2024, published 2025).
Some of these results come from one statement about several compounds together.

The chains behind the UniProt entries cited, without tags or fusion partners.
UniProt P51531, whole entry: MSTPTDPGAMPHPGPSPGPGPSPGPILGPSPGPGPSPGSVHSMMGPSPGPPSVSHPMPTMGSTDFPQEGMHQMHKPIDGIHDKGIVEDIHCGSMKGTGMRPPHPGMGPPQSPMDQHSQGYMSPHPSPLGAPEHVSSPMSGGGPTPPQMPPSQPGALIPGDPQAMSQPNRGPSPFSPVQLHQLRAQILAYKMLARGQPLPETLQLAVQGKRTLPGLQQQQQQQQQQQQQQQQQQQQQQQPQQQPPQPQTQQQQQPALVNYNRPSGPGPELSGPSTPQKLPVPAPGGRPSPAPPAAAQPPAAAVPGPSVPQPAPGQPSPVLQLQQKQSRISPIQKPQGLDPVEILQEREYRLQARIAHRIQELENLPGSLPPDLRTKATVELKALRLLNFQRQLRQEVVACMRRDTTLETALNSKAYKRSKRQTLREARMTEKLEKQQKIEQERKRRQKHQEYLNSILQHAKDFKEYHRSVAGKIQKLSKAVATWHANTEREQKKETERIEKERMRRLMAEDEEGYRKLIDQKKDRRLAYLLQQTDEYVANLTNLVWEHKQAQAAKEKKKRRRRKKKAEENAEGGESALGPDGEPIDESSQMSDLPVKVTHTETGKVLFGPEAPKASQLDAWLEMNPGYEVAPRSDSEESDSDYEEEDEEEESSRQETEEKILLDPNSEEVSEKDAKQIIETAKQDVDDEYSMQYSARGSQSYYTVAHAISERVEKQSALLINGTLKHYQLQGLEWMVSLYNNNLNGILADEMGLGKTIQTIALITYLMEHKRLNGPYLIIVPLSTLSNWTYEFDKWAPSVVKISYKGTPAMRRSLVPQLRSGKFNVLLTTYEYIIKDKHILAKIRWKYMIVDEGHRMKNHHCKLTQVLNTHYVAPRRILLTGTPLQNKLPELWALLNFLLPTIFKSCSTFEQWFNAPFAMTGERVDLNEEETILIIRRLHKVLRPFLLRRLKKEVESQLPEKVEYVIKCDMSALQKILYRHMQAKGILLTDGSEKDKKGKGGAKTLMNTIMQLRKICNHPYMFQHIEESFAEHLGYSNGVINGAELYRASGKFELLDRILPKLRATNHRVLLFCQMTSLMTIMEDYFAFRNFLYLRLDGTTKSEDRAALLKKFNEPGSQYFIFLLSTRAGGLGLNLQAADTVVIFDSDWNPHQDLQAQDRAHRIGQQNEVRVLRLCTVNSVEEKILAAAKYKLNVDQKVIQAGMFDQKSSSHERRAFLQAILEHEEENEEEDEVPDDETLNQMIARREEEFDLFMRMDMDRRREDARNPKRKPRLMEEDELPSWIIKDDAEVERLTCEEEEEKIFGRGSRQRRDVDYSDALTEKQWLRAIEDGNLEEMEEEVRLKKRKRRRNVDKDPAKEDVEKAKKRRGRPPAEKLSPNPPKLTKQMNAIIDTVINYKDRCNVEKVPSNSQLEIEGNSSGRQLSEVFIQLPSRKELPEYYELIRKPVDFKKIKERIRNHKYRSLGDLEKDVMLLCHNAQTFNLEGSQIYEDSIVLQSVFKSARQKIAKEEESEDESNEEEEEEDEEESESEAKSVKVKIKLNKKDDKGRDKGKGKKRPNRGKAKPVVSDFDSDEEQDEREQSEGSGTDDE
UniProt P51532, whole entry: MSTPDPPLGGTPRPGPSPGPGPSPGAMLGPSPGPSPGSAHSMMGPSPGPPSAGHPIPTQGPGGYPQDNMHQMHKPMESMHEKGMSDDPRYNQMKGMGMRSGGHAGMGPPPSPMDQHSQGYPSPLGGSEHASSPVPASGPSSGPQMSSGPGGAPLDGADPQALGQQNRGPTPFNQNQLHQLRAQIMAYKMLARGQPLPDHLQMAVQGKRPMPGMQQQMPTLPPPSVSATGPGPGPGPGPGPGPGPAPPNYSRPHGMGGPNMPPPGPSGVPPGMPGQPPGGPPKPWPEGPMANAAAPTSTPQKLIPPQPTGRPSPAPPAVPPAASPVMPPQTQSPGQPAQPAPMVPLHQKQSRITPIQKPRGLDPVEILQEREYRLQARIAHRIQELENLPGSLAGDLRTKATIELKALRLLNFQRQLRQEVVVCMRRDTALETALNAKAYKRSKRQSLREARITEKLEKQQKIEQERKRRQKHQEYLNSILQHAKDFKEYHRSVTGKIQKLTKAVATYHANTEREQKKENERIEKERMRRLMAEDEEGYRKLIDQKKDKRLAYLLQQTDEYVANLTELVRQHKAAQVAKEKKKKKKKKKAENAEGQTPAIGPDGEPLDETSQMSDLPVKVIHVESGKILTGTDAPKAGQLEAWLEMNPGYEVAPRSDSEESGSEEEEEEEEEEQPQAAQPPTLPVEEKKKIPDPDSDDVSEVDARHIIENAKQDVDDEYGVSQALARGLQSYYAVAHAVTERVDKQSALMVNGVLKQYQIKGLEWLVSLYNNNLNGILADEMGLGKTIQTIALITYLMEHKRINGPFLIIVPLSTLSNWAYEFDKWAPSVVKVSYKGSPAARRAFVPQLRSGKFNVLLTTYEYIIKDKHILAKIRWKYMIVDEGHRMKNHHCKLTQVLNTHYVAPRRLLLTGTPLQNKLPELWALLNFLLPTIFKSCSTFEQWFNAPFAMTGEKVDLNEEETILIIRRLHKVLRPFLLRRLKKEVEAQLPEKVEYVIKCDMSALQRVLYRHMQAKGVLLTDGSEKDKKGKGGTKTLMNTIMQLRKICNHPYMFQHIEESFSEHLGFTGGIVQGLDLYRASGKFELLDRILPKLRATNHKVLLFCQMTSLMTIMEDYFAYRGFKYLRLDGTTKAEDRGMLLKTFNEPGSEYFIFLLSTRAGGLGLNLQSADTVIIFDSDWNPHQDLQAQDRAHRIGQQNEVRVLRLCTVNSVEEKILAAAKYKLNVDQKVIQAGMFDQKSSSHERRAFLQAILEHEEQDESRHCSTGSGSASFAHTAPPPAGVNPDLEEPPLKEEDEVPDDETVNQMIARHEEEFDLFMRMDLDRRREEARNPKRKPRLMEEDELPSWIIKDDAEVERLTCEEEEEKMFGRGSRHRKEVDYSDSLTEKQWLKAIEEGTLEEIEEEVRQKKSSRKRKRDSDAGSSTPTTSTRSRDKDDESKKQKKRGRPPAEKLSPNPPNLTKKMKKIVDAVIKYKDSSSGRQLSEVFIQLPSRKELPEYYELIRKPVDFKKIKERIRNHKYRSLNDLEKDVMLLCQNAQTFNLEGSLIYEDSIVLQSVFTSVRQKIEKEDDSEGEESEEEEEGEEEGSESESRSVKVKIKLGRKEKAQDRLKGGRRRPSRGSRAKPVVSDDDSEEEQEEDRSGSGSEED

What was measured:
SMARCA2 = SMARCA2 (Homo sapiens, UniProt P51531); experiment: Single dose pharmacodynamics, SMARCA2 in LNCaP tumors by western blot; format: in vivo; parameters: from tissue; host or cells: LNCaP xenograft tumours from CB17 SCID mice; settings: LNCaP tumors in mice
SMARCA4 = SMARCA4 (Homo sapiens, UniProt P51532); experiment: Single dose pharmacodynamics, SMARCA4 in LNCaP tumors by western blot; format: in vivo; parameters: from tissue; host or cells: LNCaP xenograft tumours from CB17 SCID mice; settings: LNCaP tumors in mice
[1] = single dose 20 mg/kg i.v. infusion

Compound	degradation of SMARCA2 achieved for at least 5 days (SMARCA2; single dose 10 mg/kg s.c.)	degradation of SMARCA2 observed for longer than 3 days (SMARCA2; single dose 10 mg/kg s.c.)	degradation of SMARCA4 observed for longer than 3 days (SMARCA4; single dose 10 mg/kg s.c.)	degradation of SMARCA2 achieved for at least 5 days (SMARCA2; [1])	degradation of SMARCA2 observed for longer than 3 days (SMARCA2; [1])	degradation of SMARCA4 observed for longer than 3 days (SMARCA4; [1])
Cc1ncsc1-c1ccc([C@H](C)NC(=O)[C@@H]2C[C@@H](O)CN2C(=O)[C@@H](c2cc(OCCN3CCC(CN4CCN5c6cc(-c7ccccc7O)nnc6NC[C@H]5C4)CC3)no2)C(C)C)cc1 [Compound 2]	more than 80%	Greater than 50%	Greater than 50%			
C[C@]12CNc3nnc(-c4ccccc4O)cc3N1C[C@H](Oc1ccc(CN3CCN(c4ccc5c(c4)C(=O)N([C@H]4CCC(=O)NC4=O)C5)CC3)cn1)C2 [Compound 1]				more than 80%	Greater than 50%	Greater than 50%
